## Cleaved PARP in drug-treated melanoma cells

Data from the primary screen of doi:10.1371/journal.pone.0140310, rounded.

Drugs:
cediranib, 2000 nM: COc1cc2c(Oc3ccc4[nH]c(C)cc4c3F)ncnc2cc1OCCCN1CCCC1
STA-4783, 30 nM: CN(NC(=O)CC(=O)NN(C)C(=S)c1ccccc1)C(=S)c1ccccc1
PD173074, 500 nM: CCN(CC)CCCCNc1ncc2cc(-c3cc(OC)cc(OC)c3)c(NC(=O)NC(C)(C)C)nc2n1
enzastaurin, 4000 nM: Cn1cc(C2=C(c3cn(C4CCN(Cc5ccccn5)CC4)c4ccccc34)C(=O)NC2=O)c2ccccc21
BI-78D3, 1000 nM: O=c1[nH]nc(Sc2ncc([N+](=O)[O-])s2)n1-c1ccc2c(c1)OCCO2
pazopanib, 2000 nM: Cc1ccc(Nc2nccc(N(C)c3ccc4c(C)n(C)nc4c3)n2)cc1S(N)(=O)=O
nilotinib, 1000 nM: Cc1cn(-c2cc(NC(=O)c3ccc(C)c(Nc4nccc(-c5cccnc5)n4)c3)cc(C(F)(F)F)c2)cn1
indole-3-carbinol, 4000 nM: OCc1c[nH]c2ccccc12
cisplatin, 8000 nM: N.N.[Cl][Pt][Cl]
vincristine, 0.5 nM: CC[C@]1(O)C[C@H]2CN(CCc3c([nH]c4ccccc34)[C@@](C(=O)OC)(c3cc4c(cc3OC)N(C=O)[C@H]3[C@@](O)(C(=O)OC)[C@H](OC(C)=O)[C@]5(CC)C=CCN6CC[C@]43[C@@H]65)C2)C1
GW441756, 2000 nM: Cn1cc(/C=C2\C(=O)Nc3cccnc32)c2ccccc21
PF-562271, 400 nM: CN(c1ncccc1CNc1nc(Nc2ccc3c(c2)CC(=O)N3)ncc1C(F)(F)F)S(C)(=O)=O
lenalidomide, 5000 nM: Nc1cccc2c1CN(C1CCC(=O)NC1=O)C2=O (centres undefined)
selumetinib, 75 nM: Cn1cnc2c(F)c(Nc3ccc(Br)cc3Cl)c(C(=O)NOCCO)cc21
CP-690550, 5000 nM: C[C@@H]1CCN(C(=O)CC#N)C[C@@H]1N(C)c1ncnc2[nH]ccc12
vorinostat, 400 nM: O=C(CCCCCCC(=O)Nc1ccccc1)NO
dovitinib, 500 nM: CN1CCN(c2ccc3nc(-c4c(N)c5c(F)cccc5[nH]c4=O)[nH]c3c2)CC1
MK-1775, 100 nM: C=CCn1c(=O)c2cnc(Nc3ccc(N4CCN(C)CC4)cc3)nc2n1-c1cccc(C(C)(C)O)n1
darinaparsin, 2000 nM: C[As](C)SC[C@H](NC(=O)CC[C@H](N)C(=O)O)C(=O)NCC(=O)O

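Human melanoma cells were exposed to a pair of drugs for 72 h in 1,536-well plates and read by automated microscopy after fixing and staining. Each value is the cleaved-PARP-positive fraction of nuclei relative to DMSO-treated wells, in %, so that 100 equals the control and higher values mean more apoptosis. Concentrations were fixed for each drug; these are the higher of two levels. No replicate spread is given; individual values may be noisy. The marker varies much from line to line, for technical or biological reasons.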 This is part of the screen, not chosen by result.

Drugs	MeWo	WM115	WM451Lu	COLO 792	SK-MEL-30	COLO 829
PD173074 + selumetinib	98.9	69.8	482	67.8	139	118
BI-78D3 + MK-1775	138	79.9	77.8	54.5	122	150
selumetinib + enzastaurin	85.2	58.9	81.5	112	151	153
PF-562271 + pazopanib	48.3	402	63.6	94.4	156	45.9
STA-4783 + MK-1775	856	2650	148	1080	188	174
vincristine + pazopanib	95.2	243	71.6	45.8	157	214
selumetinib + darinaparsin	112	88.9	138	157	212	141
nilotinib + PD173074	106	117	47.9	83.3	116	128
PF-562271 + PD173074	166	132	148	57.4	162	110
vorinostat + nilotinib	87.7	56.8	118	159	128	130
darinaparsin + CP-690550	87.9	85.0	56.6	108	50.1	111
STA-4783 + vorinostat	2100	2190	67.6	383	71.4	295
vorinostat + vincristine	48.7	143	563	172	597	111
lenalidomide + selumetinib	115	55.8	67.2	166	148	106
cediranib + vorinostat	87.9	142	35.4	63.9	124	170
PF-562271 + CP-690550	80.0	60.7	50.9	39.2	60.3	243
lenalidomide + darinaparsin	94.5	193	73.7	135	96.8	85.2
PF-562271 + cisplatin	96.4	101	146	202	147	131
indole-3-carbinol + GW441756	113	46.2	57.7	58.3	128	66.5
enzastaurin + MK-1775	87.9	50.5	202	214	122	77.5
lenalidomide + pazopanib	55.0	148	87.7	70.5	82.7	121
dovitinib + vorinostat	212	186	228	297	116	225
MK-1775 + dovitinib	302	103	68.4	148	154	177
cisplatin + lenalidomide	81.5	211	35.4	154	221	129
dovitinib + darinaparsin	242	440	105	213	91.3	105
BI-78D3 + selumetinib	103	49.7	92.2	78.2	115	186
enzastaurin + darinaparsin	237	101	100	160	160	157
PD173074 + BI-78D3	124	108	70.0	33.8	85.3	75.8
vincristine + dovitinib	398	1380	738	130	577	138
vincristine + darinaparsin	814	1710	3140	207	939	301
STA-4783 + nilotinib	1400	3080	303	1220	68.8	615
cisplatin + vincristine	55.3	43.1	156	155	176	98.5
cediranib + CP-690550	188	42.5	40.2	65.7	134	146
darinaparsin + MK-1775	330	214	229	256	170	192
GW441756 + cediranib	48.0	31.9	103	205	180	148
STA-4783 + dovitinib	2370	218	102	202	201	312
BI-78D3 + lenalidomide	143	165	85.3	156	93.9	104
cisplatin + indole-3-carbinol	83.4	39.9	166	199	213	190

For reference, 3 entries once more:

* selumetinib + darinaparsin : MeWo: 112; WM115: 88.9; WM451Lu: 138; COLO 792: 157; SK-MEL-30: 212; COLO 829: 141
* indole-3-carbinol + GW441756 : MeWo: 113; WM115: 46.2; WM451Lu: 57.7; COLO 792: 58.3; SK-MEL-30: 128; COLO 829: 66.5
* selumetinib + enzastaurin : MeWo: 85.2; WM115: 58.9; WM451Lu: 81.5; COLO 792: 112; SK-MEL-30: 151; COLO 829: 153